# Results deposited as PubChem BioAssay AID1259308 (NCATS, 2017).
# Aim: 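Candidate targets for better recombinant protein yield in mammalian cells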 (primary screen)
# Cell system: human HEK293 embryonic kidney cells stably expressing firefly luciferase (HEK-CMV-Luc2-Hygro)
# Reagents: single siRNA against human genes, 0.8 pmol siRNA per well
# Duration: 72 h
# Measurement: 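Luciferase light (ONE-Glo) measured on one replicate plate set and viability (CellTiter-Glo) on the other, scaled to a negative control siRNA, with robust z-scores and luciferase per cell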
# Reading the numbers: total luciferase, z-score and total luciferase, % of control: higher = more reporter protein produced; luciferase per cell, z-score: higher = more reporter output per viable cell
# Hit rule: 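Active when the median/MAD z-score for overall luciferase is greater than 3; a gene was taken forward for validation with new siRNAs if at least two of its three siRNAs passed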
# Meaning of the calls: active = raised luciferase; inactive = no rise
# The whole screen tested about 59,000 reagents; shown is a part drawn at random. About 1,510 of all reagents (2.6%) count as active. 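Calls use total luciferase alone and ignore viability, so some active siRNAs may act by altering cell number.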 Unmarked entries are inactive. Reagents against one gene are numbered here. Further read-outs or replicates are left out here.
gene,reagent,"total luciferase, z-score","total luciferase, % of control","luciferase per cell, z-score"
HDHD3,1,-0.493,72.1,-0.464
HDHD3,2,-0.409,73.8,-0.705
HDHD3,3,-0.909,63.8,-0.72
ZNF519P3,1,0.183,85.5,0.732
ZNF519P3,2,0.00319,81.9,0.0284
ZNF519P3,3,-0.161,78.7,0.128
TIMM22,1,1.77,117,2.63
TIMM22,2,0.928,100,0.186
TIMM22,3,0.27,87.3,0.509
CTAGE1,1,4.99 (active),181,3.5
CTAGE1,2,-0.155,78.8,-0.529
CTAGE1,3,-0.972,62.6,-1.1
PPFIA1,1,1.56,113,1.66
PPFIA1,2,-0.439,73.2,-0.774
PPFIA1,3,1.27,107,0.773
ADRB3,1,0.444,90.7,0.378
ADRB3,2,0.315,88.1,0.534
ADRB3,3,-0.554,70.9,-1.01
ZBTB8OSP1,1,-0.528,71.4,0.988
ZBTB8OSP1,2,0.213,86.1,0.587
ZBTB8OSP1,3,-1.67,48.8,-1.57
H4C4,1,-0.92,63.6,1.56
H4C4,2,0.34,88.6,1.08
H4C4,3,-0.119,79.5,-0.0933
RASGRP3,1,-0.0272,81.3,0.297
RASGRP3,2,-0.0802,80.3,-0.0326
RASGRP3,3,-0.737,67.2,0.282
HEATR4,1,0.862,99,0.544
HEATR4,2,0.625,94.3,0.296
HEATR4,3,1.53,112,0.864
ZNF384,1,-0.0171,81.5,0.967
ZNF384,2,0.888,99.6,2.26
ZNF384,3,-1.35,55,0.488
RAP1BL,1,0.878,99.3,0.792
RAP1BL,2,-0.101,79.9,-0.672
RAP1BL,3,0.52,92.2,0.248
POLD2,1,-0.119,79.5,-0.496
POLD2,2,-0.782,66.3,-1.63
POLD2,3,0.0768,83.4,-0.0762
HSFY1P1,1,-0.375,74.4,-0.35
HSFY1P1,2,1.73,116,1.33
HSFY1P1,3,-0.667,68.6,-0.473
SERPINA4,1,-0.379,74.3,-0.487
SERPINA4,2,-0.528,71.4,-1.29
SERPINA4,3,1.52,112,-0.0681
RNASEH2B,1,-0.0181,81.5,0.528
RNASEH2B,2,0.601,93.8,-0.157
RNASEH2B,3,0.208,86,0.204
HEATR3,1,1.72,116,2
HEATR3,2,-0.346,75,-0.432
HEATR3,3,-1.65,49.2,-1.81
TIMM21,1,1.34,109,1.94
TIMM21,2,-0.708,67.8,-0.727
TIMM21,3,-0.623,69.5,-1.23
C5orf22,1,0.496,91.8,0.473
C5orf22,2,-0.621,69.5,-0.711
C5orf22,3,1.39,109,2.04

Single entries from the list.
HDHD3 #3, total luciferase, % of control: 63.8
Result for PPFIA1 #3 in “total luciferase, % of control”: 107
For “total luciferase, z-score”, ADRB3 #1 is entered as 0.444
Under “total luciferase, % of control”, RAP1BL #1 shows 99.3
For “luciferase per cell, z-score”, ZNF519P3 #2 reads 0.0284
POLD2 #2, luciferase per cell, z-score → -1.63
